# Experimental data as given in PubChem BioAssay AID445 (National Center for Advancing Translational Sciences (NCATS), 2006).
# “And” between values parts separate entries of the source, which are not always exact repeats. Equal values may be shown once. The list shows a part of the results. Further columns of the screen follow, without active or inactive calls. Compounds called inactive in the main read-out are mostly missing here. Potencies come from curve fits of mixed quality, noted in brackets.
# Assay: IkB Signaling
# Conditions: ABC-DLBCL IkBa-CBG/CBR dual luciferase ratio (green luciferase fused to IkBa over red control in OCI-Ly3 lymphoma cells), 4 h
# How it was run: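 Curves were fitted separately to fusion (green), unfused (red) and ratio luminescence, then classed by r2, magnitude and activity. Cells: OCI-Ly3, 4 h compound plus doxycycline at 37C; 10 uM MG-132 defined full response.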
# [1] = measured here: control luc red channel unless noted
compound,measurement,setting,value
c1ccc(COn2nnc3ccccc32)c(COn2nnc3ccccc32)c1,AC50,[1],"12.6 µM [falling, partial curve]"
COC(=O)c1c(C)sc(-c2c(-c3cccc(Cl)c3)[nH]c3c2c(=O)[nH]c(=O)n3C)c1O,AC50,[1],"20 µM [falling, partial curve]"
COc1cccc(C(=O)NCC(=O)N2CCC(C)CC2)c1,AC50,[1],"12.6 µM [falling, partial curve]"
COc1ccc(CCNC(=O)CCc2c(C)nc3c(c(C)nn3-c3ccccc3)c2C)c(OC)c1,AC50,[1],"5.01 µM [falling, full curve]"
c1ccc2c(c1)OCC(c1nn3c(Cn4nnc5ccccc54)nnc3s1)O2 (centres undefined),AC50,[1],"12.6 µM [falling, partial curve]"
CCCNC(=O)CCC(=O)N1Cc2ccccc2Oc2ncccc21,AC50,[1],"6.31 µM [rising, partial curve]"
Cc1cc(N2CCC(C)CC2)nc2ccc(NC(=O)/C=C/c3cccc(Cl)c3)cc12,AC50,[1],"3.98 µM [falling, full curve]"
c1ccc2c(-c3nc(-c4ccncc4)no3)cccc2c1,AC50,[1],"0.158 µM [rising, full curve]"
CC(C)c1ccc(Nc2c(-c3ccccc3O)nc3cnccn23)cc1,AC50,[1],"12.6 µM [falling, partial curve]"
COC(=O)Nc1nc2ccc(C(=O)c3cccs3)cc2[nH]1,AC50,measured here: IkB-luc green channel,"126 nM [rising, full curve] and 200 nM [rising, full curve]"
same,AC50,measured here: control luc red channel,"39.8 nM [rising, full curve] and 251 nM [rising, full curve] and 200 nM [rising, full curve]"
Cc1ccc2nc(NC(=O)c3cc(=O)c4cc(Cl)ccc4o3)sc2c1,AC50,[1],"39.8 µM [falling, single point]"
CC(=O)N1CCc2c(sc3c2c(=O)n(-c2ccc(C)cc2)c(=O)n3CC(=O)Nc2ccccc2)C1,AC50,[1],"2.51 µM [falling, full curve]"
Cn1c(Oc2ccc(F)cc2)nc2c1c(=O)n(Cc1ccccc1Cl)c(=O)n2C,AC50,[1],"12.6 µM [falling, partial curve]"
COC(=O)c1c(NC(=O)c2ccccc2C(=O)O)sc2c1CCCC2,AC50,[1],"39.8 µM [falling, single point]"
COc1ccc(Cn2ccc3nc(C)c(C(=O)Nc4ccc(C)c(F)c4)cc3c2=O)cc1,AC50,[1],"1 µM [rising, partial curve, poor fit]"
O=C(C1CCCN(S(=O)(=O)c2cccs2)C1)N1CCc2ccccc2C1 (centres undefined),AC50,[1],"20 µM [falling, partial curve]"
Cn1c(SCC(=O)NCc2ccc3c(c2)OCO3)nc2scc(-c3cccs3)c2c1=O,AC50,[1],"10 µM [falling, partial curve]"
O=C(C1CCN(S(=O)(=O)c2cccc3nonc23)CC1)N1CCN(c2ccccc2)CC1,AC50,[1],"39.8 µM [falling, single point]"
COC(=O)CSc1nnc(CNC(=O)Cc2ccccc2)n1-c1ccccc1OC,AC50,[1],"3.16 µM [falling, partial curve]"
CS(=O)(=O)N1CCc2cc(C(=O)N3CCN(c4ccc(F)cc4)CC3)ccc21,AC50,[1],"31.6 µM [falling, single point]"
CC(=O)N1CCCc2ccc(NS(=O)(=O)c3ccc(F)cc3F)cc21,AC50,[1],"15.8 µM [falling, partial curve]"
COc1cc(C(=O)N2CCc3c([nH]c4ccccc34)C2c2ccccc2)cc(OC)c1OC (centres undefined),AC50,[1],"15.8 µM [falling, partial curve, poor fit]"
Cc1cccc(N(CC(=O)NCCSc2ccc(Cl)cc2)S(=O)(=O)c2ccccc2)c1C,AC50,[1],"6.31 µM [falling, full curve]"
O=C(NCc1ccc(N2CCCC2=O)cc1)Nc1cccc(Cl)c1,AC50,[1],"12.6 µM [falling, partial curve]"
Cc1ccc(C)c(N2CCN(C(=O)c3cc(S(=O)(=O)N4CCCC4)cn3C)CC2)c1,AC50,[1],"25.1 µM [falling, partial curve]"
CCOC(=O)C1CCC(CN(Cc2c(Cl)cccc2Cl)S(=O)(=O)c2ccc(F)cc2)CC1 (centres undefined),AC50,[1],"25.1 µM [falling, single point]"
CCOc1ccc(OCc2cccc(C(=O)O)c2)cc1,AC50,[1],"0.398 µM [falling, full curve]"
COc1ccc(N2CCN(c3cc(C)c4ccc(O)cc4n3)CC2)cc1,AC50,[1],"12.6 µM [falling, partial curve]"
Cc1nc(SCC(=O)Nc2ccc(Br)cc2)[nH]c(=O)c1Cc1ccccc1,AC50,[1],"10 µM [falling, partial curve]"
Cc1c(Cl)cccc1NC(=O)Cn1nc(C)c2sc3ccccc3c2c1=O,AC50,[1],"3.16 µM [falling, full curve]"
Cc1ccc(C)c(S(=O)(=O)c2nnn3c2nc(Nc2ccc(F)c(Cl)c2)c2sccc23)c1,AC50,[1],"6.31 µM [falling, partial curve]"
Cc1ccc2c(c1)N(C(=O)N1CCC(C(=O)NCc3ccco3)CC1)CC(C)O2 (centres undefined),AC50,[1],"39.8 µM [falling, single point]"
CCCCOC(=O)c1ccc(NC(=O)Cc2coc3ccc(C(C)C)cc23)cc1,AC50,[1],"39.8 µM [falling, single point]"
COc1ccc(NC(=O)C2C(=O)N(CCO)C3(C)CC2c2ccccc2O3)cc1 (centres undefined),AC50,[1],"3.16 µM [falling, full curve, poor fit]"
Cc1cc(C)c(C(=O)Nc2ccccc2)c(SCC(=O)Nc2ccc(Br)cc2C)n1,AC50,[1],"39.8 µM [falling, single point]"
CC(=O)c1ccc(N2CCN(C3C(=O)c4ccccc4N3C(C)=O)CC2)cc1 (centres undefined),AC50,[1],"31.6 µM [falling, single point]"
O=C1CC(Sc2nnc(-c3ccccc3)o2)C(=O)N1c1ccccc1 (centres undefined),AC50,[1],"39.8 µM [falling, single point]"
COc1ccc(Cl)cc1NC(=O)c1nn(C)c2c1CS(=O)(=O)c1ccccc1-2,AC50,[1],"15.8 µM [falling, single point]"
COc1ccc(-n2cc(C(=O)NCc3cccc(OC)c3)c3ccccc3c2=O)cc1,AC50,[1],"2 µM [falling, partial curve]"
CC(C)Oc1ccc(CNC(=O)CCCn2c(=O)c3cccn3c3cccnc32)cc1,AC50,[1],"31.6 µM [falling, single point]"
O=C(NCc1ccc2c(c1)CCN2C(=O)c1ccncc1)c1ccc(Cl)cc1,AC50,[1],"39.8 µM [falling, single point]"
Clc1ccc(OCc2nn3c(-c4ccco4)nnc3s2)cc1,AC50,[1],"20 µM [falling, partial curve]"
Cc1c(Cl)cccc1NC(=O)CN1C(=O)CCn2nc(-c3cccn3C)cc21,AC50,[1],"15.8 µM [falling, partial curve]"
CCn1c(NCc2cccc(Cl)c2)nc2ccccc21,AC50,[1],"31.6 µM [falling, single point]"
COc1cc(-c2nc3ccc(C)cn3c2Nc2ccc(Cl)cc2)ccc1O,AC50,[1],"5.01 µM [falling, full curve]"
O=C(CSc1nc(-c2ccccc2)cn1-c1ccccc1)Nc1ccccc1,AC50,[1],"39.8 µM [falling, single point]"
O=C(NCCCN1CCCCC1)c1cc(Sc2ccc(Cl)cc2)nc2ccccc12,AC50,[1],"31.6 µM [falling, single point]"
Cc1ccc(-n2c3c(cc(C(=O)NCc4ccco4)c2=O)C(=O)CC(C)(C)C3)cc1,AC50,[1],"20 µM [falling, partial curve]"
Cc1ccc(-c2nn(-c3ccccc3)cc2C2SCC(=O)N2Cc2ccccc2)o1 (centres undefined),AC50,[1],"7.94 µM [falling, partial curve]"
O=C(Cn1c(=O)n(Cc2ccc3c(c2)OCO3)c(=O)c2ccc(C(=O)NC3CCCCC3)cc21)Nc1ccccc1F,AC50,[1],"31.6 µM [falling, partial curve]"
Cc1cccn2c(=O)c3cc(C(=O)NCc4ccccc4Cl)sc3nc12,AC50,[1],"1.58 µM [rising, full curve]"
CCOC(=O)c1cc(-c2ccccc2)n(CCCC(=O)Nc2ccc(C)cc2C)c1C,AC50,[1],"0.631 µM [rising, single point]"
COc1cccc(NC2SC(=O)N(c3ccccc3)C2=O)c1 (centres undefined),AC50,[1],"0.0126 µM [falling, full curve, poor fit]"
Cc1cccc(-n2c3nc(=O)n(C)c(=O)c-3cc3ccc(Cl)cc32)c1C,AC50,[1],"5.01 µM [falling, partial curve]"
Cc1noc2ncnc(NCc3cccc(Cl)c3)c12,AC50,[1],"15.8 µM [falling, single point]"
Oc1cccc(Nc2ncnc3sc4c(c23)CCCC4)c1,AC50,[1],"31.6 µM [falling, partial curve]"
CCOc1ccc(-n2c(SCC(=O)N3CCCCC3)nc3c([nH]c4ccccc43)c2=O)cc1,AC50,[1],"0.2 µM [falling, single point]"
COc1cc(S(=O)(=O)N2CCCCC2)ccc1NC=O,AC50,[1],"3.16 µM [rising, partial curve]"
CC(C)(C)C(=O)N1CCN(c2nc3c(F)cccc3s2)CC1,AC50,[1],"2.51 µM [rising, partial curve]"
O=C(CSc1nc(=O)n(Cc2ccco2)c2c1CCC2)NCc1ccc(F)cc1,AC50,[1],"15.8 µM [falling, partial curve]"
CCc1ccc(NC(=O)CSc2nc(=O)n(Cc3ccco3)c3c2CCC3)cc1,AC50,[1],"25.1 µM [falling, single point]"
COc1ccc(S(=O)(=O)N2CCCN(CCC(=O)Nc3cccc(C(F)(F)F)c3)CC2)cc1,AC50,[1],"20 µM [falling, partial curve]"
O=C(NC1CC(=O)N(c2ccc(Cl)cc2)C1)c1cccs1 (centres undefined),AC50,[1],"5.01 µM [rising, partial curve]"

# Part of the list above, bar-delimited:
compound | measurement | setting | value
O=C(C1CCN(S(=O)(=O)c2cccc3nonc23)CC1)N1CCN(c2ccccc2)CC1 | AC50 | [1] | 39.8 µM [falling, single point]
O=C(Cn1c(=O)n(Cc2ccc3c(c2)OCO3)c(=O)c2ccc(C(=O)NC3CCCCC3)cc21)Nc1ccccc1F | AC50 | [1] | 31.6 µM [falling, partial curve]
